According to the supplement of paper PMC12823440, “Inhibitors supercharge kinase turnover through native proteolytic circuits” (Nature, 2025):
Some of the results follow. The calls rarely recur for the same compound in another form.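 Kinases, fused to nanoluciferase, were expressed in K562 cells; luminescence was measured every 4 h from 2 to 18 h as percent of control (DMSO = 100%, positive control = 0%). A time point is decreased if signal falls significantly (2 sigma). Hits were called by the authors by a rule that is not shown; the count of time points alone does not decide it.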

Amino acid sequences for entries named in this document (tags omitted). A change or cut given only in a name is not applied to a line headed by its entry.
UniProt Q9UM73: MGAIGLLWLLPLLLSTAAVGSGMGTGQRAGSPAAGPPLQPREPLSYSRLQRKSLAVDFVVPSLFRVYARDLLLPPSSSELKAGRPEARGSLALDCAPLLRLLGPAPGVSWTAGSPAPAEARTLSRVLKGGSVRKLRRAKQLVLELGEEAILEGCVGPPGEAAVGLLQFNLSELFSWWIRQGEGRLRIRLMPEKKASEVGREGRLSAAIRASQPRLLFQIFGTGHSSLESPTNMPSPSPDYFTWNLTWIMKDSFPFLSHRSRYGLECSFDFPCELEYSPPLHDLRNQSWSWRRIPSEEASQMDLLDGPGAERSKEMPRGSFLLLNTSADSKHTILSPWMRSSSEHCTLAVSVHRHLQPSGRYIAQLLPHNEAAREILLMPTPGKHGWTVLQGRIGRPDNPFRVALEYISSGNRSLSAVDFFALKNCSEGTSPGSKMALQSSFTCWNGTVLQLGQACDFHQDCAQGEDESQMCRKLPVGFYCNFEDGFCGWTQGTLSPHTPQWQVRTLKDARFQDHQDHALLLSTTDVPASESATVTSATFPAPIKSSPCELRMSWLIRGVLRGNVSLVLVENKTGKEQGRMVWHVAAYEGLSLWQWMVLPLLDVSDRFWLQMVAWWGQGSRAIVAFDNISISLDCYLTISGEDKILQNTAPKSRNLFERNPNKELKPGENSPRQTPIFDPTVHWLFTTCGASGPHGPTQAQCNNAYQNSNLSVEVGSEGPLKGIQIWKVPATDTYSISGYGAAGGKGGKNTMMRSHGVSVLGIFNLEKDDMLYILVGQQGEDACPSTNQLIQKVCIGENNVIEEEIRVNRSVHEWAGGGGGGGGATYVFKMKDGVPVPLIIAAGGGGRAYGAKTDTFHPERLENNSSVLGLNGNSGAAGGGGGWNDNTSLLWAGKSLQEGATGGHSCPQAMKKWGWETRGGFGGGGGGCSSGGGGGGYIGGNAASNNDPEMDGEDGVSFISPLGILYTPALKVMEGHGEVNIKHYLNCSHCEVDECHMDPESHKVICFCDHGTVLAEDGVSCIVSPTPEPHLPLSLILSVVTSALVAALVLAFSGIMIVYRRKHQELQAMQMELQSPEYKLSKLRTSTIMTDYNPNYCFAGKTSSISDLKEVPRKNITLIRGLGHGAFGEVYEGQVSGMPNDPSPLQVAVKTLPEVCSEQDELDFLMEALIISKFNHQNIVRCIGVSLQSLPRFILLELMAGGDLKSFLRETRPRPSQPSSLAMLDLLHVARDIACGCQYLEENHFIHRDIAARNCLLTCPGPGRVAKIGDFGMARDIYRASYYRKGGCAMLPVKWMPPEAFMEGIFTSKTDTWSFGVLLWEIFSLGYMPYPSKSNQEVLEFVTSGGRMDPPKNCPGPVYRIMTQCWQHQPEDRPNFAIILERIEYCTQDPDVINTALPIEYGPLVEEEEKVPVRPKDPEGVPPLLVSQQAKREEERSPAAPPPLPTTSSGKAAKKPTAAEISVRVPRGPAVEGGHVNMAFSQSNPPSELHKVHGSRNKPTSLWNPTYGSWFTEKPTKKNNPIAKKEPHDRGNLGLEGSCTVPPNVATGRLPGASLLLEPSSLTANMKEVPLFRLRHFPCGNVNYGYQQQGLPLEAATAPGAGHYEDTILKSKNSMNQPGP
UniProt P10398: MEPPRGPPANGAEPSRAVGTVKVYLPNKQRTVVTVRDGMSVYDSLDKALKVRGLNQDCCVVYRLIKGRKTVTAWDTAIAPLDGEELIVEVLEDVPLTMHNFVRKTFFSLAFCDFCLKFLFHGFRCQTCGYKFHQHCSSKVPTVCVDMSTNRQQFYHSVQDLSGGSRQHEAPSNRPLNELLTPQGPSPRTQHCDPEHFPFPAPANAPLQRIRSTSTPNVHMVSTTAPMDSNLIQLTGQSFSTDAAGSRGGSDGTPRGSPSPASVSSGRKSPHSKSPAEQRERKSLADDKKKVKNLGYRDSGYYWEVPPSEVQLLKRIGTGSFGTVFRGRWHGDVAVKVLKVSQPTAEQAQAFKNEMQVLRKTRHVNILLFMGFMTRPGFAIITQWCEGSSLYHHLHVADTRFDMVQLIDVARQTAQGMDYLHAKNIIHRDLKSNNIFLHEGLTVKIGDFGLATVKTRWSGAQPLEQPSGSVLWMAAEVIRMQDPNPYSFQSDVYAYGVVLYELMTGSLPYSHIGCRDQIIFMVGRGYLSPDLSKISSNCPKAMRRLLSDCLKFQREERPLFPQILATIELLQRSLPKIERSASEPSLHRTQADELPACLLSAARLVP
UniProt O14965: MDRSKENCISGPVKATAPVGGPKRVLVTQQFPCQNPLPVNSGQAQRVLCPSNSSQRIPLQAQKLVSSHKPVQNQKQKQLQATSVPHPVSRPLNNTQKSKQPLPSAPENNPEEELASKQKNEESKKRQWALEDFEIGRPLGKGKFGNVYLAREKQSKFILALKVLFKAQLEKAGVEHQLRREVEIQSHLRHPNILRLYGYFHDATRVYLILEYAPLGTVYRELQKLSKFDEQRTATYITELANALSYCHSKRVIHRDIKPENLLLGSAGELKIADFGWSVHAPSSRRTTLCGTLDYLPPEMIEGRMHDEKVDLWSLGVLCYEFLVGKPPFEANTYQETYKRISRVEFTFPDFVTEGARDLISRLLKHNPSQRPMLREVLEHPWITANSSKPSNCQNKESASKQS
UniProt Q96GD4, whole entry: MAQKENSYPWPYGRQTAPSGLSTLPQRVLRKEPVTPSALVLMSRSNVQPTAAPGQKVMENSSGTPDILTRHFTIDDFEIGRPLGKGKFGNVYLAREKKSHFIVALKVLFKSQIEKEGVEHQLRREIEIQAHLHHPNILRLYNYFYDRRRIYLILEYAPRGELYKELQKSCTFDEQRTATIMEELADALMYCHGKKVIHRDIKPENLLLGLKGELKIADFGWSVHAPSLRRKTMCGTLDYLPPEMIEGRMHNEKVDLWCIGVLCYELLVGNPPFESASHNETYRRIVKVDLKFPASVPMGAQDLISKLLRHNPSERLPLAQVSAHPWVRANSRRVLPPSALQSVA
UniProt Q9UQB9: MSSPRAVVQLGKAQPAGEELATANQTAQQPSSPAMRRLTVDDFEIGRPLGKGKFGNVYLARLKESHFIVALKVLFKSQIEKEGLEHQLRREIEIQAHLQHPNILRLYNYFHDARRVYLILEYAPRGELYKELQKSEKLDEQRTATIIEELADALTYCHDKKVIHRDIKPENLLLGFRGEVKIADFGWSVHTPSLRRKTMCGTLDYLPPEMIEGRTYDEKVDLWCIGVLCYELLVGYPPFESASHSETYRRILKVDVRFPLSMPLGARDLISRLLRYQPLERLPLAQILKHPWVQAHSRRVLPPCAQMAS
UniProt P51451: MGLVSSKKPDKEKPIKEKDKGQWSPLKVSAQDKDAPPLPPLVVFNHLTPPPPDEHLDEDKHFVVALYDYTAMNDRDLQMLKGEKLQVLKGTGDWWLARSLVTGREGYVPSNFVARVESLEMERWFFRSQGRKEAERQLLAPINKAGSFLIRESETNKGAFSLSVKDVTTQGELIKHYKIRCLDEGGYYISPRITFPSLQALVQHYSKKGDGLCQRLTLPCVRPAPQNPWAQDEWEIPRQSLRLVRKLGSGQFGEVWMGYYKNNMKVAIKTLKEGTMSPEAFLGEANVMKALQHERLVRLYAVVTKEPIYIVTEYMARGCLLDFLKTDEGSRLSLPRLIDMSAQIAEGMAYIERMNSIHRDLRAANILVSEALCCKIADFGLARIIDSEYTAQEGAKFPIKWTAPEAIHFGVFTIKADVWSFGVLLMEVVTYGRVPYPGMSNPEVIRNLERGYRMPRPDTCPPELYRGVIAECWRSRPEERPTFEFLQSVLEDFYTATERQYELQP
UniProt P51813: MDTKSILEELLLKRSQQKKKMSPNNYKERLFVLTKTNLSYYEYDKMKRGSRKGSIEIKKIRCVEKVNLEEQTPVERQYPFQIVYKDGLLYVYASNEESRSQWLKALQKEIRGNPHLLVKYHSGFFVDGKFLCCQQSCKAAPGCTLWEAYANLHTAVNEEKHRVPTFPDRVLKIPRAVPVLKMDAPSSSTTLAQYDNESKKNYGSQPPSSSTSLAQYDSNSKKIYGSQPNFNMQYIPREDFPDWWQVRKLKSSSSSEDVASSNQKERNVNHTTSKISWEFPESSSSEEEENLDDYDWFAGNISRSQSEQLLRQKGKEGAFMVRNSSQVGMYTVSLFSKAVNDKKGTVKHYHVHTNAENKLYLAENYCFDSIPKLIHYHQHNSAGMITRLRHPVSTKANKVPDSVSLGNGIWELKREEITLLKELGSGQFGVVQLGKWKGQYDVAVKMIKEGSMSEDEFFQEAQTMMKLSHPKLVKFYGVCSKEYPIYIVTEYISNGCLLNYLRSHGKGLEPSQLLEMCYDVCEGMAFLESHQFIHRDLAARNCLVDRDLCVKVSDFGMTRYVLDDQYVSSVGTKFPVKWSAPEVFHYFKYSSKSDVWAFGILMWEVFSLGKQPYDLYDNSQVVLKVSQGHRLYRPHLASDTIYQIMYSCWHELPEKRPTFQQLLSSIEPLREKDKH
UniProt Q9UQM7, whole entry: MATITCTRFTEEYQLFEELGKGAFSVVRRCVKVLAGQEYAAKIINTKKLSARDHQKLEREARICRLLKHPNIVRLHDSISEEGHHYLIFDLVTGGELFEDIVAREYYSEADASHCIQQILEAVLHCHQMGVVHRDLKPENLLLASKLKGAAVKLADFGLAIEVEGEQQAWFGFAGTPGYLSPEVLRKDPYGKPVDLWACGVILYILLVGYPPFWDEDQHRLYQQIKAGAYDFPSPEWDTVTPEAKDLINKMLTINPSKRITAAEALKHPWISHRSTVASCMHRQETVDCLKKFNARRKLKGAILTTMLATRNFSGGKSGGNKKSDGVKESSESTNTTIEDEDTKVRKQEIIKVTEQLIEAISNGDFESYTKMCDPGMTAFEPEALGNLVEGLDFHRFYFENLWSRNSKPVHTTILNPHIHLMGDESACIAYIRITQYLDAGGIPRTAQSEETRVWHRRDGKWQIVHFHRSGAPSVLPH
UniProt Q13555: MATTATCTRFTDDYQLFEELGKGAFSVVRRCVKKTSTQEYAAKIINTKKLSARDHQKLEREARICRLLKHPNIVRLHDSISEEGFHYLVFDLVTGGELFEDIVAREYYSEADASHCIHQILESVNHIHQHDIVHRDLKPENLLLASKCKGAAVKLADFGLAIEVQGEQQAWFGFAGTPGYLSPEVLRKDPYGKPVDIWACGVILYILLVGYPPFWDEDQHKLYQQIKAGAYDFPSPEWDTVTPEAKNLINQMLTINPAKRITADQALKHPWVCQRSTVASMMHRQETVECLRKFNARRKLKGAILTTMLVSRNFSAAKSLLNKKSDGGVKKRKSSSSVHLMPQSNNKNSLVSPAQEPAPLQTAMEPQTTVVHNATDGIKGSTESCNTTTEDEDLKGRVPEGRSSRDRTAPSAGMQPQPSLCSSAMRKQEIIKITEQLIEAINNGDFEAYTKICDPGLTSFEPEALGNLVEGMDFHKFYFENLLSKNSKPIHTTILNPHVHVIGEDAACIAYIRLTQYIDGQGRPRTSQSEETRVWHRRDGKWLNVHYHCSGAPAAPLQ
UniProt Q15131: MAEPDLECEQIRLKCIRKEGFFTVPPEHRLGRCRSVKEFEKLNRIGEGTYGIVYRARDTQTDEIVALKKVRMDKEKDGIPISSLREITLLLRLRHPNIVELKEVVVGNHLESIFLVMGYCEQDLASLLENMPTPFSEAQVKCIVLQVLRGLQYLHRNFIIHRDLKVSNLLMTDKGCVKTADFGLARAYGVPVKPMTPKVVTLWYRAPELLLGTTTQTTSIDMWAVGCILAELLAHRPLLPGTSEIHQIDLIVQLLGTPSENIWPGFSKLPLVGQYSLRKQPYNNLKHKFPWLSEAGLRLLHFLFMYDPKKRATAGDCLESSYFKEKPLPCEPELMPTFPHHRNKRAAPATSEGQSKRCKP
UniProt Q00526: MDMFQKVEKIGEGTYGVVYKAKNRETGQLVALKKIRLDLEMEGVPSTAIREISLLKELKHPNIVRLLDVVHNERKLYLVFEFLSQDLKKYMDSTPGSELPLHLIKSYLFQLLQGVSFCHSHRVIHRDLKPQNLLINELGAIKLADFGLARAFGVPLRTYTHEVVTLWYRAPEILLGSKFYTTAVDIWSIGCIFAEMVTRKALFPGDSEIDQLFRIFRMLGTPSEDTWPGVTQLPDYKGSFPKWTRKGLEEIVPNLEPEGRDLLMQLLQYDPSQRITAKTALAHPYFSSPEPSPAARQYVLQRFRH
UniProt Q00534, whole entry: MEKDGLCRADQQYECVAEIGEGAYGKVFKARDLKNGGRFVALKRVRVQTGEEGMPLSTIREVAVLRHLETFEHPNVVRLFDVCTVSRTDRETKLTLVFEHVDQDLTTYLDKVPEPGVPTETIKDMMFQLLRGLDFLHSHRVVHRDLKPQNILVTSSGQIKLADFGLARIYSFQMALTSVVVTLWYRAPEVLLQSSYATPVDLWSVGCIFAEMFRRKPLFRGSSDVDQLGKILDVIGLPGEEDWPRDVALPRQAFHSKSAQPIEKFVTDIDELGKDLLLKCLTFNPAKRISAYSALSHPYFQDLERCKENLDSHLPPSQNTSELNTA

Experiments:
Test in all cases: number of time points (of 5) at which kinase-Nluc abundance scored as decreased, DMSO-normalised (count); higher = more persistent destabilization
Settings in all cases: K562; 2-18 h
[1] = target: ALK (UniProt Q9UM73)
[2] = target: ARAF (UniProt P10398)
[3] = target: AURKA (UniProt O14965)
[4] = target: AURKB (UniProt Q96GD4)
[5] = target: AURKC (UniProt Q9UQB9)
[6] = target: BLK (UniProt P51451)
[7] = target: BMX (UniProt P51813)
[8] = target: BRAF (UniProt P15056)
[9] = system: BRAF_V600E
[10] = target: BTK (UniProt Q06187)
[11] = target: CAMK2A (UniProt Q9UQM7)
[12] = target: CAMK2G (UniProt Q13555)
[13] = target: CDK10 (UniProt Q15131)
[14] = target: CDK2 (UniProt P24941)
[15] = target: CDK3 (UniProt Q00526)
[16] = target: CDK5 (UniProt Q00535)
[17] = target: CDK6 (UniProt Q00534)
[18] = target: CHEK2 (UniProt O96017)
[19] = target: CSF1R (UniProt P07333)
[20] = target: CSK (UniProt P41240)

Measured: number of time points

COc1ccc2c(c[n+](C)c3c4cc5c(cc4ccc23)OCO5)c1OC [Chelerythrine (chloride)] (10 µM)
0: [1] | [2] | [3] | [4] | [5] | [6] | [7] | [8] | [9] | [10] | [11] | [13] | [14] | [15] | [16] | [17] | [18] | [19] | [20]
5: [12]

CC(=O)OC(C)(C)/C=C/C(=O)[C@](C)(O)[C@H]1[C@H](O)C[C@@]2(C)[C@@H]3CC=C4[C@@H](C=C(O)C(=O)C4(C)C)[C@]3(C)C(=O)C[C@]12C [Cucurbitacin E] (2.5 µM)
4: [3] | [4] | [18] | [19]
1: [7]
0: [2] | [5] | [6] | [8] | [9] | [10] | [11] | [12] | [13] | [14] | [15] | [16] | [17] | [20]
3: [1]

C[C@H]1CC[C@]2(NC1)O[C@H]1C[C@H]3[C@@H]4CC[C@H]5C[C@@H](O[C@@H]6O[C@H](CO)[C@H](O[C@@H]7O[C@H](CO)[C@@H](O)[C@H](O[C@@H]8OC[C@@H](O)[C@H](O)[C@H]8O)[C@H]7O[C@@H]7O[C@H](CO)[C@@H](O)[C@H](O)[C@H]7O)[C@H](O)[C@H]6O)CC[C@]5(C)[C@H]4CC[C@]3(C)[C@H]1[C@@H]2C [Tomatine] (2.5 µM)
4: [3] | [6] | [12] | [18]
0: [2] | [5] | [7] | [8] | [9] | [10] | [11] | [13] | [14] | [15] | [16] | [17] | [20]
5: [1] | [4] | [19]

COc1ccc(N(C(=O)Oc2c(C)cccc2C)c2ccnc(Nc3ccc(N4CCN(C)CC4)cc3)n2)c(OC)c1 (2.5 µM)
0: [1] | [2] | [3] | [4] | [5] | [7] | [8] | [9] | [10] | [11] | [12] | [13] | [14] | [15] | [16] | [17] | [18] | [19] | [20]
1: [6]

CC(=O)Oc1ccc(/C=C/c2cc(OC(C)=O)cc(OC(C)=O)c2)cc1 [Triacetylresveratrol] (10 µM)
0: [1] | [2] | [3] | [4] | [5] | [6] | [7] | [8] | [9] | [10] | [11] | [12] | [13] | [14] | [15] | [16] | [17] | [18] | [19] | [20]

COc1ccc(/C=C/c2cc(OC)c(OC)c(OC)c2)cc1 (2.5 µM)
1: [11] | [12] | [15]
0: [2] | [3] | [4] | [5] | [6] | [7] | [8] | [9] | [10] | [13] | [14] | [16] | [17] | [20]
3: [1]
2: [18] | [19]

COc1ccc2c(c1OC)C(OC)N(C)c1c-2ccc2cc3c(cc12)OCO3 (configuration not stated) [Angoline] (10 µM)
0: [1] | [2] | [3] | [4] | [5] | [6] | [7] | [8] | [9] | [10] | [11] | [12] | [13] | [14] | [15] | [16] | [17] | [18] | [19] | [20]

CCCCCCCCCCCCCCCCOC[C@H](COP(=O)([O-])OCC[N+](C)(C)C)OC(C)=O (10 µM)
0: [1] | [2] | [3] | [4] | [5] | [6] | [7] | [8] | [9] | [10] | [11] | [12] | [13] | [14] | [15] | [16] | [17] | [18] | [19] | [20]

CC1=C[C@]23C(=O)[C@@H](C=C(CO)[C@@H](O)[C@]2(O)[C@H]1O)[C@H]1[C@@H](C[C@H]3C)C1(C)C [Ingenol] (10 µM)
0: [1] | [2] | [3] | [4] | [5] | [6] | [7] | [8] | [9] | [10] | [11] | [12] | [13] | [14] | [15] | [16] | [17] | [18] | [19] | [20]

COC[C@H]1OC(=O)c2coc3c2[C@@]1(C)C1=C(C3=O)[C@@H]2CCC(=O)[C@@]2(C)C[C@H]1OC(C)=O [Wortmannin] (2.5 µM)
0: [1] | [2] | [5] | [8] | [10] | [11] | [12] | [13] | [14] | [15] | [16] | [17] | [19] | [20]
2: [18]
3: [6] | [9]
4: [3] | [4] | [7]

N#CC(C#N)=Cc1ccc(O)c(O)c1 [Tyrphostin 23] (10 µM)
0: [1] | [2] | [3] | [4] | [5] | [6] | [7] | [8] | [9] | [10] | [11] | [12] | [13] | [14] | [15] | [16] | [17] | [18] | [19] | [20]

Cn1cc(C2=C(c3cn(C4CCN(Cc5ccccn5)CC4)c4ccccc34)C(=O)NC2=O)c2ccccc21 [Enzastaurin] (10 µM)
0: [1] | [2] | [3] | [4] | [5] | [6] | [7] | [8] | [9] | [10] | [11] | [12] | [13] | [14] | [15] | [16] | [17] | [18] | [19] | [20]

C[C@H](CCC(=O)O)C[C@H](C)C[C@H](C)C(=O)/C=C(\O)[C@H](C)C[C@H](C)C/C=C/[C@@H](C)[C@@H](O)[C@@H](C)[C@@H](O)C[C@@H]1CC[C@@](C)([C@H]2CC[C@@](C)([C@@H](C)O)O2)O1 [Ionomycin (calcium)] (2.5 µM)
0: [1] | [2] | [4] | [5] | [6] | [7] | [8] | [9] | [10] | [11] | [12] | [13] | [14] | [15] | [16] | [17] | [18] | [19] | [20]
5: [3]

C/C(O)=C(\C#N)C(=O)Nc1cc(Br)ccc1Br (10 µM)
0: [1] | [2] | [3] | [4] | [5] | [6] | [7] | [8] | [9] | [10] | [11] | [12] | [13] | [14] | [15] | [16] | [17] | [18] | [19] | [20]

O=Cc1cn(Cc2ccc(Cl)cc2)c2ccccc12 [Oncrasin-1] (10 µM)
0: [1] | [2] | [3] | [4] | [5] | [6] | [7] | [8] | [9] | [10] | [11] | [12] | [13] | [14] | [15] | [16] | [17] | [18] | [19] | [20]

O=c1[nH]c2ccccc2n1C1CCN(Cc2ccc(-c3[nH]c4cc5ncnc5cc4nc3-c3ccccc3)cc2)CC1 [AKT inhibitor VIII] (2.5 µM)
0: [1] | [2] | [3] | [4] | [5] | [6] | [7] | [8] | [9] | [10] | [11] | [12] | [13] | [14] | [15] | [16] | [17] | [18] | [19] | [20]

C[C@H](Nc1ncnc2[nH]cnc12)c1nc2ccc(F)cc2c(=O)n1-c1ccccc1 [Acalisib] (10 µM)
0: [1] | [2] | [3] | [4] | [5] | [6] | [7] | [8] | [9] | [10] | [11] | [12] | [13] | [14] | [15] | [16] | [17] | [18] | [19] | [20]

Nothing new here: two of the compounds above.
C/C(O)=C(\C#N)C(=O)Nc1cc(Br)ccc1Br (10 µM)
0: [1] | [2] | [3] | [4] | [5] | [6] | [7] | [8] | [9] | [10] | [11] | [12] | [13] | [14] | [15] | [16] | [17] | [18] | [19] | [20]

O=Cc1cn(Cc2ccc(Cl)cc2)c2ccccc12 [Oncrasin-1] (10 µM)
0: [1] | [2] | [3] | [4] | [5] | [6] | [7] | [8] | [9] | [10] | [11] | [12] | [13] | [14] | [15] | [16] | [17] | [18] | [19] | [20]

Remaining list, next part.

COc1ccc2c(c1)/C(=C/c1cnc[nH]1)C(=O)N2 (2.5 µM)
0: [1] | [2] | [3] | [4] | [5] | [6] | [7] | [8] | [9] | [10] | [11] | [12] | [13] | [15] | [16] | [17] | [18] | [19] | [20]

O=C(O)c1nn(Cc2ccc(Cl)cc2Cl)c2ccccc12 [Lonidamine] (10 µM)
0: [1] | [2] | [3] | [4] | [5] | [6] | [7] | [8] | [9] | [10] | [11] | [12] | [13] | [14] | [15] | [16] | [17] | [18] | [19] | [20]

COc1cc2c(cc1F)C(c1ccccc1Cl)=Nc1c(n[nH]c1C)N2 (0.5 µM)
0: [1] | [2] | [3] | [4] | [5] | [6] | [7] | [8] | [9] | [11] | [12] | [13] | [14] | [15] | [17] | [18] | [19] | [20]

O=C(/C=C/c1ccccc1)OC[C@H]1O[C@@H](O[C@@H]2OC=C[C@H]3[C@H](O)[C@@H]4O[C@]4(CO)[C@@H]23)[C@H](O)[C@@H](O)[C@@H]1O [Picroside I] (10 µM)
0: [1] | [2] | [3] | [4] | [5] | [6] | [7] | [8] | [9] | [10] | [11] | [12] | [13] | [14] | [15] | [16] | [17] | [18] | [19] | [20]

CCCS(=O)(=O)Nc1ccc(F)c(-n2cc(-c3cncnc3)c3nc(N(C)C4CCN(CC)CC4)ccc32)c1F (2 µM)
0: [1] | [2] | [3] | [4] | [5] | [6] | [7] | [8] | [9] | [10] | [11] | [12] | [13] | [14] | [15] | [16] | [17] | [18] | [19] | [20]

C[S+]([O-])/C=C/CCN=C=S (configuration not stated) [Sulforaphene] (10 µM)
0: [1] | [2] | [3] | [4] | [5] | [6] | [7] | [8] | [9] | [10] | [11] | [12] | [13] | [14] | [15] | [16] | [17] | [18] | [19] | [20]
